Test results published in PubChem BioAssay AID1259354 (Paczesny and Yang Labs, IUPUI and University of Michigan, 2018).
In all, about 78,000 compounds went through this assay and about 1,800 (2.3%) were called active. The inconclusive results got no clear call from the source; some entries with a clear call stand among them for comparison. Cut-off read from the data, not from the text of the source: active = inhibition above about 30%; inconclusive = mostly about 10% to 28%; inactive = weaker than that.

Amino acid sequences for entries named in this document (tags omitted). A change or cut given only in a name is not applied to a line headed by its entry.
UniProt Q01638: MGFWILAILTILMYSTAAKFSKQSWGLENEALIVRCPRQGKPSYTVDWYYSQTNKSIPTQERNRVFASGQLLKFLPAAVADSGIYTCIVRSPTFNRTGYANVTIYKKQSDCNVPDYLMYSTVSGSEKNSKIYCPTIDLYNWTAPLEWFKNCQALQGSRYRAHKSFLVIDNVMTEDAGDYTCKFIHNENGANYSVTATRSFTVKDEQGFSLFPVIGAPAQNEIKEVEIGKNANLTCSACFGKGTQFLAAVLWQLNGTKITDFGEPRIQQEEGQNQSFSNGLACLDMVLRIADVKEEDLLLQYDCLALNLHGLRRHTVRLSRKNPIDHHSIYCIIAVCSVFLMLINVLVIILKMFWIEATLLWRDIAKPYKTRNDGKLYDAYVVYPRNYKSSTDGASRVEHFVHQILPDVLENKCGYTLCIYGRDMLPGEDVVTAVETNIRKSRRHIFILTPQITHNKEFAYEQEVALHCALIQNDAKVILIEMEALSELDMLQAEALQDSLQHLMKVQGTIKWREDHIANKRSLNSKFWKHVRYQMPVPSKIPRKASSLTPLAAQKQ

Target: Interleukin-1 receptor-like 1 (Homo sapiens) (UniProt Q01638)
Experiment: blocks human ST2 binding to IL-33, primary screen, biochemical, AlphaLISA (AID 1259354)
Settings: AlphaLISA ST2-Fc/biotin-IL-33 interaction, 1 h; at 17 µM, active compounds read high

Row | SMILES | inhibition
1 | CCCS(=O)(=O)N1CCC(C(=O)NCCN2CCCCC2C)CC1 (centres undefined) | inactive
2 | Cc1ccc(CCS(=O)(=O)c2ccc(C(C)C)cc2)c[n+]1C | inconclusive: 10%
3 | CCC(=O)N1CCc2cc(Br)cc(S(=O)(=O)CCC(=O)N3CCC(C)CC3)c21 | inconclusive: 11%
4 | Cc1ccc(Nc2nc3ccccc3c(=O)s2)cc1C | inconclusive: 23%
5 | O=S(=O)(c1ccc(Cl)cc1)c1nc(-c2ccc(Cl)cc2)oc1N1CCOCC1 | inconclusive: 19%
6 | CC(C)c1csc(CN(CCc2ccccc2)CC2CCN(C)CC2)n1 | inconclusive: 19%
7 | CCN(CC)C(=O)C1CCCN(c2ccc([N+](=O)[O-])cc2S(=O)(=O)N2CCOCC2)C1 (centres undefined) | inactive
8 | Cc1nc2ccccc2nc1SCc1cc2c(cc1Cl)OCO2 | inactive
9 | O=C(CCN1CCCC1)Nc1ccc(Br)cc1 | inconclusive: 21%
10 | COc1ccccc1N(CC(=O)Nc1ccc(F)cc1)S(=O)(=O)c1ccc(C)cc1 | inconclusive: 10%
11 | COc1ccccc1NC(=O)c1cc2ccccc2oc1=Nc1ccc(F)cc1 | inactive
12 | Cc1ccc(Cl)cc1N1CCN(S(=O)(=O)c2cccc3nsnc23)CC1 | inconclusive: 24%
13 | CC1=C[C@@H](CNC(=O)COCC(=O)O)[C@H](C(C)C)C[C@H]1CC(=O)N1CCCC1 | inconclusive: 14%
14 | Cc1nc2c(ccc3nc(NC(=O)c4ccc(C#N)cc4)sc32)s1 | active: 35%
15 | CN1C(=O)CO[C@H]2CN(Cc3c[nH]c4ccccc34)C[C@H]21 | inconclusive: 16%
16 | c1cncc(NCCCNC2CCC3(CCNCC3)CC2)c1 | inactive
17 | CC1(C)NC(=O)N(CC(O)COc2ccc(C3C=CCC3)cc2)C1=O (centres undefined) | inconclusive: 24%
18 | O=C(Nc1cccc(Cl)c1)N1CCCC1 | inconclusive: 21%
19 | CCCCNC(=O)c1cc(-c2ccncc2)nc2ccccc12 | inactive
20 | CC1(C)NC(=O)N(CC(O)CN2CCCC2)C1=O (centres undefined) | inconclusive: 19%
21 | O=C(NCCSCc1ccco1)c1ccc(CN2CCc3ccccc3C2)cc1 | inactive
22 | COc1ccc(-c2nn(-c3ccccc3C)cc2CN(C)CCn2ccnc2C)cc1F | inconclusive: 10%
23 | N#CC1=C(N)Oc2cc(O)ccc2C1c1cccc(Cl)c1Cl (centres undefined) | inconclusive: 13%
24 | Cc1cc(C)n(CC(C)NC(=O)c2oc3c(F)cccc3c2C)n1 (centres undefined) | inconclusive: 11%

Part of the list above in order of length of the SMILES, smallest number first.
Row | SMILES | inhibition
18 | O=C(Nc1cccc(Cl)c1)N1CCCC1 | inconclusive: 21%
14 | Cc1nc2c(ccc3nc(NC(=O)c4ccc(C#N)cc4)sc32)s1 | active: 35%
3 | CCC(=O)N1CCc2cc(Br)cc(S(=O)(=O)CCC(=O)N3CCC(C)CC3)c21 | inconclusive: 11%

The list continues.

Row | SMILES | inhibition
25 | COc1ccc(NS(=O)(=O)c2ccc(NC(=O)c3ccc([N+](=O)[O-])cc3)cc2)nn1 | inactive
26 | O=C(Nc1nc2c(ccc3ccccc32)s1)c1ccc2c(c1)OCCO2 | inconclusive: 15%
27 | CCOC(=O)CN1C(=O)CSc2ccc(S(=O)(=O)N(CC)CC)cc21 | inactive
28 | N#CC1=C(N)OC2=C(C(=O)CC(c3ccccc3)C2)C1c1ccco1 (centres undefined) | inconclusive: 10%
29 | CCOc1ccc(N=Cc2c(O)n(-c3ccccc3C)c(=O)c3ccccc23)cc1 | inconclusive: 16%
30 | Cc1c(NC(=O)CCCc2ccccc2)cccc1NC(=O)CCCc1ccccc1 | inconclusive: 13%
31 | Cc1cccc(-c2nc(CN3CCCCC3)c(C)o2)c1 | inactive
32 | COc1ccccc1C(=O)Nc1sc2c(c1C(=O)NC1CCS(=O)(=O)C1)CCCC2 (centres undefined) | inconclusive: 10%
33 | COCCn1c(C)cc(C(=O)NCc2nc3cccnc3n2Cc2ccc(C)cc2)c1C | inconclusive: 11%
34 | Cc1c(Cn2ccnc2-c2ccc3c(c2)CC(C)(C)O3)cnn1C | inconclusive: 16%
35 | COc1ccccc1N=c1oc2ccccc2cc1C(=O)Nc1ccc(F)cc1 | inconclusive: 13%
36 | O=S(=O)(N[C@H]1CO[C@H]2[C@@H]1OC[C@@H]2n1nnnc1-c1ccc2c(c1)OCO2)c1ccc2ccccc2c1 | inconclusive: 20%
37 | CC(C)C(C(=O)N(C)C(C)C(N)=O)N(C)C(=O)C1CCCN1C(=O)/C=C/C=C/C(O)C(C)O (centres undefined) | inconclusive: 14%
38 | CN1C(=O)C2(CCCN(C(=O)C(=O)Nc3cccc(F)c3)C2)c2ccccc21 (centres undefined) | inactive
39 | CCN(CCOc1cccc(C)c1)C(=O)c1ccc2nc(C)[nH]c2c1 | inconclusive: 15%
40 | COc1ccccc1NC(=O)C1CC=CCC1C(=O)NC1CCCCC1 (centres undefined) | inconclusive: 14%
41 | Cc1ccc(C(C)C)c(OCC(=O)Nc2nc(C)cc(C)n2)c1 | inactive
42 | NC1=C([N+](=O)[O-])C(=O)c2ccccc21 | inconclusive: 11%
43 | CCC1C=CCN1C(=O)c1cnn2cc(CN(CC)CC)cnc12 (centres undefined) | inactive
44 | CCOCC(O)Cn1ccnc1-c1c(OC)ccc(F)c1F (centres undefined) | inconclusive: 24%
45 | COc1ccccc1CN1C[C@@H]2C[C@@H](c3cnn(-c4ccccc4F)c3)N3CCC[C@@]23C1=O | inactive
46 | CCOc1ccc(S(=O)(=O)Nc2cc([N+](=O)[O-])ccc2OC)c2cccnc12 | inactive
47 | COCc1nc2c(c(=O)[nH]1)C1(CCCCC1)Cc1ccccc1-2 | inactive
48 | NCCNCCOc1cccc(Br)c1 | inactive

Row | SMILES | inhibition
49 | Cn1cc(CN2CCCC(C(=O)c3cccc(Cl)c3)C2)c(-c2ccccc2)n1 (centres undefined) | inconclusive: 22%
50 | Nc1c(Cl)cc(Cl)cc1[N+](=O)[O-] | active: 37%
51 | NCC(O)CN1CCOCC1 (centres undefined) | inactive
52 | CCCCn1c(=N)c(C#N)cc2c(=O)n3cc(C)ccc3nc21 | inconclusive: 18%
53 | O=C(Cn1cnc2c(cnn2-c2ccc(Cl)cc2)c1=O)Nc1ccc(F)cc1 | inactive
54 | CC(C)(C)OC(=O)CSc1ncnc2sc3c(c12)CCCC3 | inactive
55 | CCC(C(=O)Nc1ccc([N+](=O)[O-])cc1Cl)c1ccccc1 (centres undefined) | inconclusive: 10%
56 | CN1CC(=O)N2CCN(S(=O)(=O)c3cc4ccccc4o3)CC2C1=O (centres undefined) | inactive
57 | COc1ccc(CNC(=O)CC[C@@H]2CNC(=O)[C@@H]3C[C@H](NC(=S)NC4CC4)CN23)cc1 | inconclusive: 23%
58 | COc1ccc(N2C(=O)CCC(C(=O)N3CCCC3)C2c2ccc(F)cc2)cc1 (centres undefined) | inconclusive: 12%
59 | N#CC1=C(N)OC2=C(C(=O)CCC2)C1c1ccc([N+](=O)[O-])cc1 (centres undefined) | inconclusive: 12%
60 | COCc1ccc(CN2CCC(C(=O)Nc3cccc(-c4cccc(Cl)c4)c3)CC2)o1 | inconclusive: 20%
61 | O=C(O)c1c[nH]c2ccc(S(=O)(=O)N3CCN(c4ccc(F)cc4)CC3)cc2c1=O | inconclusive: 11%
62 | O=C(O)CCC(=O)Nc1ccc(-c2nc3ccccc3[nH]2)cc1 | inactive
63 | O=C(Nc1cccc([N+](=O)[O-])c1)c1ccc(F)cc1 | inactive
64 | CN(Cc1ccccc1)c1nc2c(c(=O)[nH]c(=O)n2C)n1CCSc1ncccn1 | inconclusive: 10%
65 | O=C(CSc1nc2ccccc2o1)Nc1ncc(Br)cc1Br | inconclusive: 16%
66 | CCn1c2c(c3cc(C(=O)O)ccc31)CCCC2=O | inconclusive: 14%
67 | Cc1ccc(NS(=O)(=O)c2c(C)n[nH]c2C)cc1 | inactive
68 | Cc1ccc(-n2ncc3c(N4CCC(C)CC4)ncnc32)c(C)c1 | inconclusive: 16%
69 | Cc1cc([N+](=O)[O-])nn1CCCC(=O)Nc1cc(C(F)(F)F)ccc1Cl | inconclusive: 22%
70 | COc1cc(C(=O)Nc2cc(C)c3c(=O)oc4ccccc4c3n2)cc(OC)c1OC | inconclusive: 19%
71 | Cc1ccc(S(=O)(=O)NC(C)C(c2cccs2)N2CCOCC2)cc1 (centres undefined) | inconclusive: 26%
72 | COc1ccc(C(=O)Nc2ccc(I)cc2)cc1OC | inconclusive: 11%

Row | SMILES | inhibition
73 | CC(C)CC(NC(=O)C1Cc2ccccc2C1)c1nnc2n1CCNCC2 (centres undefined) | inconclusive: 10%
74 | C/C(=C\c1ccc(C(=O)O)cc1)c1ccc2c(c1)C(C)(C)CCC2(C)C | inconclusive: 13%
75 | O=C(c1ccccc1C1CCNC1)N1CCC(Nc2ccccn2)CC1 (centres undefined) | inconclusive: 10%
76 | COC(=O)[C@H]1C[C@@H](O)CCN1S(=O)(=O)Cc1ccccc1Cl | inconclusive: 15%
77 | Cc1ccccc1Cn1c(CN2CCN(c3ccc(F)cc3)CC2)nc2c1c(=O)n(C)c(=O)n2C | inconclusive: 10%
78 | O=C(c1cccs1)N1CCN=C1SCc1ccccc1 | inactive
79 | O=C(CCc1ccc2c(c1)OCO2)N1CCC2(CCCN(CC3CC3)C2=O)C1 (centres undefined) | inactive
80 | CN1C(=O)c2ccc(C(=O)Nc3cc(Cl)ccc3O)cc2C1=O | inconclusive: 15%
81 | COc1ccc(OCC(=O)NC(C)c2ccc(Br)cc2)cc1 (centres undefined) | inactive
82 | Cc1ccccc1C(=O)N1CCCCC1CO (centres undefined) | inconclusive: 10%
83 | CC(NC(=O)c1ccc2c(c1)OCO2)C(c1cccs1)N1CCN(c2ccc(F)cc2)CC1 (centres undefined) | inconclusive: 11%
84 | O=[N+]([O-])c1ccc2ccn([C@@H]3OC[C@@H](O)[C@@H](O)[C@H]3O)c2c1 | inconclusive: 15%
85 | CCc1ccc(-c2nccn2-c2ccccc2CCO)nc1 | inconclusive: 17%
86 | COCCNC(=O)[C@@H](C)[C@@H]1CCc2c(C)cc(OC)c(C)c2C1 | inactive
87 | Cc1ccc(S(=O)(=O)NC[C@H]2O[C@@H](CC(=O)NCc3ccc(F)cc3)[C@H](O)[C@@H]2O)cc1 | inconclusive: 14%
88 | COc1ccc(C=C2C(=O)OC(C)(C(C)(C)C)OC2=O)cc1Br (centres undefined) | inactive
89 | COc1cc(/C=C/C(=O)Nc2cc(C)c3c(=O)oc4ccccc4c3n2)cc(OC)c1OC | inconclusive: 28%
90 | O=C(CCS(=O)(=O)c1ccc(Br)s1)Nc1cc(F)ccc1F | inactive
91 | Cc1ccccc1C1(O)CCN(Cc2c(C)nn(C)c2N2CCOCC2)C1 (centres undefined) | inactive
92 | COc1cccc(NC(=O)/C(C#N)=C\c2cn(Cc3ccccc3)c3ccccc23)c1 | active: 35%
93 | CCCCNC(=O)c1c(Cl)nc(Cl)c([N+](=O)[O-])c1Cl | inconclusive: 13%
94 | COCCNC(=O)c1ccc(OC2CCN(Cc3cccc(C)n3)CC2)c(Cl)c1 | inconclusive: 22%

In the list so far, these have a tert-butyl group.
Row | SMILES | inhibition
54 | CC(C)(C)OC(=O)CSc1ncnc2sc3c(c12)CCCC3 | inactive
88 | COc1ccc(C=C2C(=O)OC(C)(C(C)(C)C)OC2=O)cc1Br (centres undefined) | inactive
